Experimental data taken from paper doi:10.1101/2022.01.21.477299.
Results are given in words; binding and its absence hold for the method and conditions named. In cells and extracts the contact can be indirect. Some binding calls cover weakened binding; strength is not graded here.

By UniProt entry, the sequences of proteins in these tests, tags left out.
UniProt Q9DCD6: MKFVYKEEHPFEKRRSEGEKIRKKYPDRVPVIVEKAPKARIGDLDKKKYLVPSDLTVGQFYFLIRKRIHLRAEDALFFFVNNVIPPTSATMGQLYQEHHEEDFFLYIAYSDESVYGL
UniProt Q6VNB8: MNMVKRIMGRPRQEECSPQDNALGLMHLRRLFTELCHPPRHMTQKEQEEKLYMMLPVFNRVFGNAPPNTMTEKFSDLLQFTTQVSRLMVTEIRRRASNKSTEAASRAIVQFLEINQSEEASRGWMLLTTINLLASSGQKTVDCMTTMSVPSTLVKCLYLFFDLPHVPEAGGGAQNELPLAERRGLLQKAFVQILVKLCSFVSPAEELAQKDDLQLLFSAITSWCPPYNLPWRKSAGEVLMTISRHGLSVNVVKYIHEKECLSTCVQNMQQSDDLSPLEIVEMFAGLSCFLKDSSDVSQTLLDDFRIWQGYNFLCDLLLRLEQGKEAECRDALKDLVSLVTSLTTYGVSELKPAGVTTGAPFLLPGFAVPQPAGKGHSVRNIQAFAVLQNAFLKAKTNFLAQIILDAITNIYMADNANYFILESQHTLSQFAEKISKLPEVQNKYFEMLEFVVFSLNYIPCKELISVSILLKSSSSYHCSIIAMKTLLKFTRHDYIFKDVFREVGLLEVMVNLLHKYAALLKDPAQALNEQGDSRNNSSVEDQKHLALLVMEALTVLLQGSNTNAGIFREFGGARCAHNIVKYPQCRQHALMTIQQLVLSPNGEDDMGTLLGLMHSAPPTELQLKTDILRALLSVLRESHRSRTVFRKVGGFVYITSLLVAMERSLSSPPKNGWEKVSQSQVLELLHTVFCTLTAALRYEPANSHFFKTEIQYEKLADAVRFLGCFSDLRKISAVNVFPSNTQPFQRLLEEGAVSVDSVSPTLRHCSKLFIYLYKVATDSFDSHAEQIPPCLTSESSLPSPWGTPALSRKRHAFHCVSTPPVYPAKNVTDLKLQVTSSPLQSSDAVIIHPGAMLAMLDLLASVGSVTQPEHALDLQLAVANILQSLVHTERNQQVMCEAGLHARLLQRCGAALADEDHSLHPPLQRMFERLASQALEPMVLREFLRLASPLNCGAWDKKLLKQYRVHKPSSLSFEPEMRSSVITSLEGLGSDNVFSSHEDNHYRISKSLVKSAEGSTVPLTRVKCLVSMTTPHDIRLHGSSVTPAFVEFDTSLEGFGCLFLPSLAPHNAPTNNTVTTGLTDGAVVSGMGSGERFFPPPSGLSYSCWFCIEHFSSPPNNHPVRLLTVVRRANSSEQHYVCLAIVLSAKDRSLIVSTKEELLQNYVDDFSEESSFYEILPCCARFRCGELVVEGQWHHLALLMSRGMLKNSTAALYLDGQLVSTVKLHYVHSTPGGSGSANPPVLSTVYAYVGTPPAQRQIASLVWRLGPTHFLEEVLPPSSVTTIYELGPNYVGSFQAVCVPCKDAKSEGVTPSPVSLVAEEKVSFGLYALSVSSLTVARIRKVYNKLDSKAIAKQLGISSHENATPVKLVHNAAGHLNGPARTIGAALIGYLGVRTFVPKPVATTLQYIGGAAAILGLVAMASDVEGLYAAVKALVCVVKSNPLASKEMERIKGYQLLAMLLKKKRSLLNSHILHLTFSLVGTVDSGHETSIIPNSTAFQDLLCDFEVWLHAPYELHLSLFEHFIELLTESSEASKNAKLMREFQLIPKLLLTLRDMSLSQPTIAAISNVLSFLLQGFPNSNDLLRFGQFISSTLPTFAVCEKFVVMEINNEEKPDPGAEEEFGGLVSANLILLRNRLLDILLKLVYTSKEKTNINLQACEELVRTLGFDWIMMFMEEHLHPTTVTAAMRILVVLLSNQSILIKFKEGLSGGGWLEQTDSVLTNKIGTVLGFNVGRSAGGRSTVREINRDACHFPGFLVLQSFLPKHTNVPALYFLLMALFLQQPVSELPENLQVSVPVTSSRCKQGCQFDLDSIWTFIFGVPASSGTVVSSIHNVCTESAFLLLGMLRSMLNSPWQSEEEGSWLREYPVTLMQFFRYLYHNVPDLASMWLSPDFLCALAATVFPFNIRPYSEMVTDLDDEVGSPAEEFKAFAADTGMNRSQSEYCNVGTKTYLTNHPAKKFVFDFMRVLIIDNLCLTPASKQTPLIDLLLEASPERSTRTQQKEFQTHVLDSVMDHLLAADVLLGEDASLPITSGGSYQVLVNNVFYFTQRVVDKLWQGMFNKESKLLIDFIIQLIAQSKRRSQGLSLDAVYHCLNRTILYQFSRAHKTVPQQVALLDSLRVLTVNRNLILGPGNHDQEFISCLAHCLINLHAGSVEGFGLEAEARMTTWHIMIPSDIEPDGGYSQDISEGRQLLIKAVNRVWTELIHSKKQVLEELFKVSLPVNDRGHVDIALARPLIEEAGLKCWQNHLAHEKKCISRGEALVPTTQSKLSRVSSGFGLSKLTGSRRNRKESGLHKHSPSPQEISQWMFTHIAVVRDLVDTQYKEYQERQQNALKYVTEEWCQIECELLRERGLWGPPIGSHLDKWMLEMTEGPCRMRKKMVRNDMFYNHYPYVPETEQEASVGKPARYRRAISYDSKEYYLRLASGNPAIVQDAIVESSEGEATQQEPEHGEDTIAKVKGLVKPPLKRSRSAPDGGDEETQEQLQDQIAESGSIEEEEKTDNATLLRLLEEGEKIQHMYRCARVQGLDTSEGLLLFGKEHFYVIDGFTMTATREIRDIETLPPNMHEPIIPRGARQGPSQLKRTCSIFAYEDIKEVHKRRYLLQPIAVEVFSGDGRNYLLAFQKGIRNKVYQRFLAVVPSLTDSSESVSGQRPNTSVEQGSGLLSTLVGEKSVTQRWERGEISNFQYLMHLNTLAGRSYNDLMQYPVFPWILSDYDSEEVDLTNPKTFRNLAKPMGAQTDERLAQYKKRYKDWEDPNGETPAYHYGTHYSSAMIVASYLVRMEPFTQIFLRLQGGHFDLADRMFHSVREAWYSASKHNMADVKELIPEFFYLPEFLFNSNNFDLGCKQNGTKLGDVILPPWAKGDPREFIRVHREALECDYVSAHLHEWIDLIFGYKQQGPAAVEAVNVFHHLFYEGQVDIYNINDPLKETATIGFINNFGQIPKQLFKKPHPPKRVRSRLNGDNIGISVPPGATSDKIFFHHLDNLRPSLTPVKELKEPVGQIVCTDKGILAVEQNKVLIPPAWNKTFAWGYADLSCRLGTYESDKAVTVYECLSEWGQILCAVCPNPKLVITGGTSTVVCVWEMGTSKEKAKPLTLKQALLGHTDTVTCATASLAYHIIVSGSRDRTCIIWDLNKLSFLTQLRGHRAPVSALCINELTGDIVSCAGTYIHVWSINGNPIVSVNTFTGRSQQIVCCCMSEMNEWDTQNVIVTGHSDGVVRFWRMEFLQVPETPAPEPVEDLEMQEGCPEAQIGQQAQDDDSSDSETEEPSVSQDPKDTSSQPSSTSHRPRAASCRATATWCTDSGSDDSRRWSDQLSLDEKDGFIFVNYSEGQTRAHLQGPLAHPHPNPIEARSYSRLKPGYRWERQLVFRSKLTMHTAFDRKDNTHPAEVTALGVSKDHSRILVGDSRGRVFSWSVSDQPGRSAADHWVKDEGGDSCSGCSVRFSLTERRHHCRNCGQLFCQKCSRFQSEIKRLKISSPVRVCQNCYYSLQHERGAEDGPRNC

Molecular target: GABARAP (mouse (endogenous in BMDMs)) (UniProt Q9DCD6)
Assay: co-IP

**Q.** With “WDFY3 (WD repeat and FYVE domain containing 3) (from UniProt Q6VNB8 1-3508)” as the substance, how does the binding read?
**A.** binds
